This is an account of results in publication PMC7860981, “Mitochondrial Enzymes of the Urea Cycle Cluster at the Inner Mitochondrial Membrane” (Frontiers in Physiology, 2020).

In this assay the target is T1, ornithine transcarbamylase (OTC), endogenous in mouse liver mitochondria (mouse (endogenous in mouse liver mitochondria)) (UniProt P11725).
T1 sequence: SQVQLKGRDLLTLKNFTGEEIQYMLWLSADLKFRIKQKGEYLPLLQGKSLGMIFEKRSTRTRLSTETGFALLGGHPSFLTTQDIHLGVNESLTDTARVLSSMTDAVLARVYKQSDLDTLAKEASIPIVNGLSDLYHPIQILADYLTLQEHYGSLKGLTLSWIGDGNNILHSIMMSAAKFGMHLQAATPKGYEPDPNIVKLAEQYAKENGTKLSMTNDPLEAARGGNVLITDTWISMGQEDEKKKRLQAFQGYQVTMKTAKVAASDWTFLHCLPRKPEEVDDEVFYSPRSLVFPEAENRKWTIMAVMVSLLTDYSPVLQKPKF
Kind of assay: co-IP; mouse liver mitochondrial lysate (PBS, 2% CHAPS; 1 mg/ml protein for anti-OTC and anti-CPS1, 5 mg/ml for anti-NAGS) with magnetic beads cross-linked to antibodies against NAGS, CPS1 or OTC, 20°C for 10 min, five washes with PBS with 0.05% Triton X-100; immunoblot for NAGS and CPS1; non-specific IgG as negative control. For orientation: A western blot detects proteins with antibodies after separation by electrophoresis.

These are yes or no findings as the source states them, for the method shown. In cells and extracts the contact can be indirect. Some entries that bind do so weakly or less than the wild type.

B1: carbamylphosphate synthetase 1 (CPS1), endogenous in mouse liver mitochondria (enzyme, UniProt Q8C196 39-1500)
chain: LSVKAKTAHIVLEDGTKMKGYSFGHPSSVAGEVVFNTGLGGYPEALTDPAYKGQILTMANPIIGNGGAPDTTARDELGLNKYMESDGIKVAGLLVLNYSNDYNHWLATKSLGQWLQEEKVPAIYGVDTRMLTKIIRDKGTMLGKIEFEGQSVDFVDPNKQNLIAEVSTKDVKVFGKGNPTKVVAVDCGIKNNVIRLLVKRGAEVHLVPWNHDFTQMEYDGLLIAGGPGNPALAQPLIQNVKKILESDRKEPLFGISTGNIITGLAAGAKSYKMSMANRGQNQPVLNITNRQAFITAQNHGYALDNTLPAGWKPLFVNVNDQTNEGIMHESKPFFAVQFHPEVSPGPTDTEYLFDSFFSLIKKGKGTTITSVLPKPALVASRVEVSKVLILGSGGLSIGQAGEFDYSGSQAVKAMKEENVKTVLMNPNIASVQTNEVGLKQADAVYFLPITPQFVTEVIKAERPDGLILGMGGQTALNCGVELFKRGVLKEYGVKVLGTSVESIMATEDRQLFSDKLNEINEKIAPSFAVESMEDALKAADTIGYPVMIRSAYALGGLGSGICPNKETLIDLGTKAFAMTNQILVERSVTGWKEIEYEVVRDADDNCVTVCNMENVDAMGVHTGDSVVVAPAQTLSNAEFQMLRRTSVNVVRHLGIVGECNIQFALHPTSMEYCIIEVNARLSRSSALASKATGYPLAFIAAKIALGIPLPEIKNVVSGKTSACFEPSLDYMVTKIPRWDLDRFHGTSSRIGSSMKSVGEVMAIGRTFEESFQKALRMCHPSVDGFTPRLPMNKEWPANLDLKKELSEPSSTRIYAIAKALENNMSLDEIVRLTSIDKWFLYKMRDILNMDKTLKGLNSDSVTEETLRKAKEIGFSDKQISKCLGLTEAQTRELRLKKNIHPWVKQIDTLAAEYPSVTNYLYVTYNGQEHDIKFDEHGIMVLGCGPYHIGSSVEFDWCAVSSIRTLRQLGKKTVVVNCNPETVSTDFDECDKLYFEELSLERILDIYHQEACNGCIISVGGQIPNNLAVPLYKNGVKIMGTSPLQIDRAEDRSIFSAVLDELKVAQAPWKAVNTLNEALEFANSVGYPCLLRPSYVLSGSAMNVVFSEDEMKRFLEEATRVSQEHPVVLTKFVEGAREVEMDAVGKEGRVISHAISEHVEDAGVHSGDATLMLPTQTISQGAIEKVKDATRKIAKAFAISGPFNVQFLVKGNDVLVIECNLRASRSFPFVSKTLGVDFIDVATKVMIGESIDEKRLPTLEQPIIPSDYVAIKAPMFSWPRLRDADPILRCEMASTGEVACFGEGIHTAFLKAMLSTGFKIPQKGILIGIQQSFRPRFLGVAEQLHNEGFKLFATEATSDWLNANNVPATPVAWPSQEGQNPSLSSIRKLIRDGSIDLVINLPNNNTKFVHDNYVIRRTAVDSGIALLTNFQVTKLFAEAVQKSRTVDSKSLFHYRQYSAGKAA
As to B1, the binding result is given as “binds”.
